The assay is described as follows: qHTS Assay for Lipid Storage Modulators in Drosophila S3 Cells.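 For cell number change: cells counted by Cell Tracker Red CMTPX staining in the red channel.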 The note with it: BODIPY lipid droplet fluorescence, 18-24 h; for cell number change: measured here: cell count max response, cells fed with added oleic acid. The method in brief: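 Drosophila S3 cells loaded with oleic acid (400 uM, as added) and compounds at several concentrations; lipid droplets imaged by 488-nm laser-scanning cytometry, 500–530 nm intensity and object ratio to cell channel. Percent activity normalized to 20 uM Triacsin C.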
A general note: Quantitative high-throughput screening tests each substance at several concentrations.

The mark [1] stands for this setting: measured here: cell number channel AC50, cells fed with added oleic acid.
[2] abbreviates: measured here: lipid fluorescence (Fed channel) AC50, cells fed with added oleic acid.

Some of the results follow. Shown are side measurements of this screen, not its main read-out; they come without a call. Most of these compounds were active or inconclusive in the main read-out, so they are no random draw. The note in brackets gives the kind of curve behind each potency; many fits are weak.

As usually defined, the AC50 is the concentration giving half of the maximal activity seen. For the compound `Cc1c(C(=O)Nc2nnc(SCc3ccccc3Cl)s2)cccc1[N+](=O)[O-]`, the cell number change was 50%. Further, the AC50 under setting [1] is 29.1 µM [rising, single point]. The AC50 under setting [2] was 8.2 µM [rising, partial curve].
Take `Cc1cc(C)nc(N(C#N)Cc2cccc3ccccc23)n1`: under setting [2], the AC50 is 0.58 µM [rising, full curve].
`C=CCn1c(SCC(=O)c2ccc(O)c(O)c2)nnc1-c1ccc(OC)cc1`: the cell number change is -39.3%. For the same compound, the AC50 under setting [1] is 29.1 µM [falling, single point].
As to `NC(=S)N=Nc1c(O)[nH]c2ccc(F)cc12`, the cell number change came to 28.4%. Also, the AC50 under setting [1] was 6.51 µM [rising, single point].
As to `Cc1ccc(C(=O)Nc2ncc3c(n2)CC(c2ccco2)CC3=O)cc1` (configuration not stated), the cell number change amounted to 2.34%. For the same compound, the AC50 under setting [2] is 0.00461 µM [rising, full curve, poor fit].
Regarding `CCCCCN(C(=O)COC(=O)c1ccc(Br)o1)c1c(N)n(CCCC)c(=O)[nH]c1=O`, the cell number change worked out at 1.86%. Besides, the AC50 under setting [2] was 1.46 µM [rising, partial curve, poor fit].
Turning to `Cc1oc(-c2ccccc2F)nc1CS(=O)(=O)CC(=O)NC(C)CCc1ccccc1` (configuration not stated), the cell number change came out at 14.4%.
Turning to `COc1ccc(C2CC(C(F)(F)F)n3nc(C(N)=O)c(Cl)c3N2)cc1OC` (configuration not stated), the cell number change was determined as 6.75%. Moreover, the AC50 under setting [1] is 0.092 µM [falling, full curve, poor fit].
Turning to `COc1ccc(NC(=S)NCc2ccc(Cl)cc2)c(OC)c1`, the cell number change was -32.3%. For the same compound, the AC50 under setting [1] is 0.92 µM [falling, full curve, poor fit].
Take `O=[N+]([O-])c1cc(-c2cnc3ccccc3n2)ccc1Oc1ccc(Cl)cc1`: the cell number change is -19.4%. For the same compound, the AC50 under setting [2] was 16.4 µM [falling, single point].
As for `Cc1ccc(/C=N/NC(=O)c2ccoc2C)s1`, the cell number change was -40.8%. Moreover, the AC50 under setting [1] was 32.6 µM [falling, single point]. For the same compound, the AC50 under setting [2] is 13 µM [rising, partial curve, poor fit].
In the case of `O=C(Nc1cccnc1)c1ccc(Br)s1`, the cell number change was determined as 13.3%. The AC50 under setting [2] was 32.6 µM [falling, single point].
On to `O=C(c1ccc(F)cc1)n1c(NCc2ccccc2)n[nH]c1=S`, for which the AC50 under setting [2] was 0.82 µM [rising, single point].
As to `O=CC1=C(c2ccccc2)Oc2ccccc2O1`, the cell number change is -14.2%. For the same compound, the AC50 under setting [2] is 25.9 µM [falling, single point].
In the case of `COc1cccc(NC(=O)NC2CCN(Cc3nnnn3Cc3ccc(F)cc3)CC2)c1`, the cell number change is 14.2%. In addition, the AC50 under setting [2] was 0.13 µM [falling, full curve, poor fit].
For the compound `Fc1ccc(N=c2ssnc2Cl)c(F)c1`, the cell number change is -62.5%. Under setting [1], the AC50 was 0.0058 µM [falling, full curve, poor fit]. Besides, the AC50 under setting [2] was 4.61 µM [falling, full curve, poor fit].
With `CC(=O)N1CCN(C(=O)c2cccc(S(=O)(=O)Nc3c(C)n(C)n(-c4ccccc4)c3=O)c2)CC1`, the cell number change came to 15%.
Still for that read-out and setting: the figure for `O=C(Cn1ccc2ccccc2c1=O)NCCC(=O)Nc1ccc2c(c1)OCCO2` is 0.8%.
As for `CC(Sc1nnc(NCc2ccccc2)s1)C(=O)Nc1ccc2c(c1)C(=O)c1ccccc1C2=O` (configuration not stated), the cell number change is 3.7%. Besides, the AC50 under setting [1] is 0.366 µM [rising, full curve, poor fit].
On to `CCN(CC(=O)Nc1c(F)cccc1F)C(=O)Cc1ccc2c(c1)CCC2`, for which the cell number change is -61.8%. In addition, the AC50 under setting [1] was 32.6 µM [falling, partial curve].
Regarding `CCC/C=C(\CCC)C(NS(=O)(=O)c1ccc(C(F)(F)F)cc1)c1ccccc1` (configuration not stated), the cell number change is -46.8%. In addition, under setting [1], the AC50 was 20.6 µM [falling, single point]. In addition, the AC50 under setting [2] is 2.06 µM [rising, full curve, poor fit].
For `COc1ccc(NC(=O)NC2CCCCCCC2)cc1`, the cell number change is 9.15%. Moreover, under setting [2], the AC50 is 0.794 µM [falling, single point].
With `Cc1cccc(C(=O)Nc2sc(C)c(-c3ccccc3)c2C#N)c1`, the cell number change is -17.3%. Further, the AC50 under setting [2] is 29.1 µM [rising, single point].
Turning to `O=C(COc1ccc([N+](=O)[O-])cc1)N1CCN(c2nnc(-c3ccccc3)c3ccccc23)CC1`, the cell number change was -15.1%. Moreover, under setting [2], the AC50 was 8.2 µM [falling, partial curve].
As for `CCOC(=O)N1CCN(C(=O)CNS(=O)(=O)c2c(C)cc(C)cc2C)CC1`, the cell number change stood at 12.2%. The AC50 under setting [2] is 0.58 µM [falling, single point].
Consider `Cc1cc(C)cc(NC(=O)CCCn2nc(C)c3c(C)n(-c4ccccc4)nc3c2=O)c1`, for which the cell number change is -5.44%.
On to `CC(C)n1ncc2c(C(=O)N3CCN(Cc4ccc(Cl)s4)CC3)cc(C3CC3)nc21`, for which the cell number change was -32.4%. Further, the AC50 under setting [1] was 18.4 µM [falling, single point].
With `C=CCn1c(=N)c(C(=O)NCCCOC)cc2c(=O)n3ccccc3nc21`, the cell number change is -45.7%. Besides, the AC50 under setting [1] is 18.4 µM [falling, single point].
Regarding `COc1ccccc1C1=Nc2cccc3cccc(c23)N1`, the cell number change was -37.7%. The AC50 under setting [1] was 18.4 µM [falling, single point]. In addition, the AC50 under setting [2] was 14.6 µM [falling, partial curve].
In the case of `O=C1c2cccc3cccc(c23)C(=O)N1OS(=O)(=O)c1ccccc1`, the cell number change is -28.8%. The AC50 under setting [2] was 0.58 µM [falling, single point].
For `CN(C)CCNc1ncnc2c1sc1nc(-c3ccccc3)c3c(c12)CCCC3`, the cell number change was -29.3%.
`Cc1ccc(C2CC2/C(=N/O)c2ccc(F)cc2)cc1` (configuration not stated): the cell number change was -48.4%. In addition, the AC50 under setting [1] is 10.3 µM [falling, partial curve]. The AC50 under setting [2] is 23.1 µM [falling, partial curve].
`C[C@]12CS(=O)(=O)C[C@H]1SC(=S)N2c1ccccc1`: the cell number change was 2.67%. The AC50 under setting [1] is 0.0116 µM [rising, full curve, poor fit].
Regarding `Nc1ccnc(Oc2ccc(F)cc2)c1`, the cell number change is -19.2%. Further, the AC50 under setting [1] was 0.146 µM [falling, full curve, poor fit]. For the same compound, the AC50 under setting [2] is 0.164 µM [falling, full curve].
Take `CCOc1ccc(C(O)(CCC(C)C)C(CN2CCOCC2)c2ccccc2)cc1` (configuration not stated): the cell number change is -61.6%. Also, under setting [1], the AC50 is 29.1 µM [falling, single point]. In addition, the AC50 under setting [2] was 20.6 µM [falling, single point].
Consider `COc1cc(CNCCc2ccccc2)cc(Cl)c1OCc1ccccc1`, for which the cell number change is -63.1%. Further, under setting [1], the AC50 was 3.66 µM [falling, partial curve].
Turning to `O=C(Nc1ccnn1C1CCN(Cc2ccccc2OCCO)CC1)c1cccc(F)c1`, the cell number change was 31.4%. The AC50 under setting [1] is 32.6 µM [rising, single point]. The AC50 under setting [2] is 13 µM [rising, partial curve].
Regarding `Nn1c(SCC(=O)N2CCOCC2)nnc1-c1ccc(Cl)cc1Cl`, the AC50 under setting [2] was 0.58 µM [rising, single point].
In the case of `CCS(=O)(=O)n1nc(C(=O)N2CCOCC2)nc1N`, the cell number change was -199%. For the same compound, the half-maximal activity concentration (AC50) under setting [1] is 18.4 µM [falling, partial curve]. For the same compound, the AC50 under setting [2] is 18.4 µM [falling, partial curve].
In the case of `CCCc1cc(=O)[nH]c(SCC(=O)Nc2nc3ccc(OCC)cc3s2)n1`, the cell number change was -7.88%. Moreover, the AC50 under setting [2] was 0.00517 µM [falling, full curve, poor fit].
On to `O=C(Nc1ccnn1C1CCN(Cc2ccccc2OC(F)F)CC1)c1cccnc1`, for which the cell number change was determined as 23.3%. Besides, the AC50 under setting [2] was 9.2 µM [rising, partial curve, poor fit].
As for `CSc1nc(NCCCN(C)C)c2c3c(sc2n1)CN(C)CC3`, the cell number change was determined as 33.8%. Under setting [1], the AC50 was 11.6 µM [rising, partial curve]. Also, the AC50 under setting [2] was 6.51 µM [rising, single point].
Regarding `COc1cccc(C(=O)Nc2ccc(-c3nnc(-c4ccco4)o3)cc2)c1`, the cell number change came out at 13.5%. For the same compound, the AC50 under setting [2] is 23.1 µM [falling, single point].
`CN(Cc1cccs1)C(=O)COc1ccc(-c2nnco2)cc1`: the cell number change is 29%. Also, the AC50 under setting [1] was 0.164 µM [rising, full curve, poor fit].
For `CC(C)c1ccc(NC(=S)NCCc2c[nH]c3ccccc23)cc1`, the cell number change is -16.3%.
On to `CCN(CC)S(=O)(=O)c1cccc(C(=O)N/N=C/c2c(C)nn(-c3ccccc3)c2Cl)c1`, for which the cell number change turned out to be 8.88%. Further, the AC50 under setting [2] is 0.231 µM [falling, partial curve, poor fit].
As for `CC(=O)C(Sc1nc(NC(C)(C)C)nc(N(C)C)n1)C(C)=O`, the cell number change was -33%. Besides, under setting [1], the AC50 is 16.4 µM [falling, partial curve]. Besides, the AC50 under setting [2] was 23.1 µM [falling, single point].
Turning to `O=C(CSc1nnc(CSc2nc3ccccc3s2)o1)NC1CCCCC1`, the cell number change was -11.9%. Further, the AC50 under setting [2] is 0.461 µM [rising, full curve, poor fit].
Turning to `COc1cc(C(=O)NCC(c2ccccc2)N(C)C)ccc1OCc1c(C)noc1C` (configuration not stated), the cell number change is 9.39%.
Turning to `COc1cc(OC)cc(C(=O)N2CCN(c3ncccn3)CC2)c1`, the cell number change came to 56%. Under setting [1], the AC50 was 29.1 µM [rising, single point]. Also, under setting [2], the AC50 was 29.1 µM [rising, single point].
As for `O=C(O)c1ccc(/C=N/NC(=O)C2CC2(c2ccccc2)c2ccccc2)cc1` (configuration not stated), the cell number change was 75%.
As for `CCOC(=O)N1CCN(C(=O)CCC2CCCC2)CC1`, the cell number change was -2.05%. In addition, under setting [2], the AC50 was 1.16 µM [rising, single point].
As for `COc1ccccc1-n1nnnc1SCC(=O)NCC1CCCO1` (configuration not stated), the cell number change was 18.1%.
On the same count and under the same terms, the result for `COc1ccc(C2(c3ccc(OC)cc3)NC(=O)N(CC(=O)Nc3ccc(C(N)=O)cc3)C2=O)cc1` reads 5.65%.
For the compound `CC(C)c1ccccc1OCC(=O)NCC(c1cccs1)N1CCOCC1` (configuration not stated), the cell number change is -33.5%. Further, the AC50 under setting [1] was 0.461 µM [falling, full curve, poor fit]. Further, the AC50 under setting [2] was 0.82 µM [falling, full curve, poor fit].
Take `CN(Cc1cccc(F)c1)C(=O)CNS(=O)(=O)c1ccc2ccccc2c1`: the cell number change was 20.2%. Besides, the AC50 under setting [2] is 0.206 µM [rising, single point].
In the case of `Cc1nn(CC(=O)Nc2sc3c(c2C#N)CCC(C(C)(C)C)C3)c(C)c1[N+](=O)[O-]` (configuration not stated), the cell number change was -5.95%. Under setting [2], the AC50 was 3.66 µM [falling, full curve].
With `C=CCN(c1ccccc1)S(=O)(=O)c1cccc(C(=O)NCC(c2ccc(F)cc2)N2CCOCC2)c1` (configuration not stated), the AC50 reads like this: under setting [1], 4.61 µM [rising, single point]; under setting [2], 0.651 µM [rising, partial curve].

Source of the values: PubChem BioAssay AID2685 (National Center for Advancing Translational Sciences (NCATS), 2010).
